PubChem BioAssay AID1224826 | NIAID – 2016
This is one part, drawn at random, of about 17,000 reagents tested. About 1,110 of all reagents (6.6%) were called active. 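Active means lowered or raised reporter signal; replicate intensities are raw and not normalised per plate.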 A number with no mark means an inactive call. The numbers tell different reagents against one gene apart.

Purpose: 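Knock-downs that raise or lower Tnf reporter signal after endotoxin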 (primary screen)
Cells: RAW264.7 G9 macrophages from mouse bearing reporters for p65 (GFP) and the Tnf promoter (mCherry)
Reagents: siRNA pool against mouse genes, 100 nM
Timing: 16 h of LPS stimulation, after 2 days of siRNA transfection
Conditions: bacterial lipopolysaccharide (Salmonella minnesota R595), 10 ng/ml
Read-out: 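Imaged Tnf reporter mCherry in nuclei, minus background, normalised per plate to the median and expressed as robust z-scores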
Direction: Tnf reporter robust z-score: higher = stronger Tnf promoter reporter signal after LPS; Tnf reporter intensity: higher = stronger Tnf promoter reporter signal
Rule for the call: 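a well counts as active at a score of -1.3 or below (Tlr4 knock-down control median) or above 3 (raised signal); controls and wells holding fewer than 50 cells are excluded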
Calls: active = Tnf reporter clearly lowered or raised; inactive = no clear change in Tnf reporter

target,reagent no.,Tnf reporter robust z-score,fewer than 50 cells in well,"Tnf reporter intensity, replicate 1","Tnf reporter intensity, replicate 2"
Xirp1,1,-1.8 (active),enough cells in well,76.5,53.7
Or6c69c,1,3.29 (active),enough cells in well,259,182
Rhob,1,0.2,enough cells in well,350,205
Rnase4,1,2.16,enough cells in well,216,226
Sp140l2,1,-0.82,enough cells in well,119,109
Ccdc74a,1,-0.9,enough cells in well,112,108
Fam167a,1,-1.52 (active),enough cells in well,76.8,82.3
Slc25a17,1,2.03,enough cells in well,152,190
Slc25a17,2,-1.05,enough cells in well,84.7,82.5
Galr2,1,0.09,enough cells in well,209,326
Krtap5-2,1,,fewer than 50 cells per well; well left out of calls,257,60
Cntfr,1,-0.67,enough cells in well,194,157
Nphs1,1,0.59,enough cells in well,324,191
Pdha2,1,-1.08,enough cells in well,78.2,99.6
Tmem42,1,,fewer than 50 cells per well; well left out of calls,269,88
Timm22,1,1.41,enough cells in well,221,96.8
Slc9b1,1,-0.3,enough cells in well,139,133
Rfx2,1,-0.68,enough cells in well,265,140
Il23a,1,1.27,enough cells in well,282,188
Cacybp,1,-0.15,enough cells in well,147,179
Golga3,1,-1.25,enough cells in well,160,82.8
Spr,1,0.12,enough cells in well,293,222
Ergic2,1,-0.09,enough cells in well,200,84.7
B430209F14Rik,1,-1.19,enough cells in well,167,124
Aga,1,-0.41,enough cells in well,120,174
Lrrc18,1,,fewer than 50 cells per well; well left out of calls,240,86.3
Pmf1,1,,fewer than 50 cells per well; well left out of calls,70.7,167
Wnt6,1,0.04,enough cells in well,170,308
Pramel48,1,1.68,enough cells in well,289,258
Crygb,1,-0.1,enough cells in well,239,184
Acat3,1,-0.03,enough cells in well,201,128
Casp12,1,-1.75 (active),enough cells in well,40.1,109
Gpm6b,1,0.99,enough cells in well,297,239
Ccdc42,1,-0.59,enough cells in well,143,116
Fem1c,1,1.05,enough cells in well,241,125
Fem1c,2,-1.27,enough cells in well,139,75.8
Vmn1r65,1,2.25,enough cells in well,185,177
Elac2,1,-0.29,enough cells in well,225,187
Apoa2,1,0.52,enough cells in well,185,214
Or10j27,1,-0.44,enough cells in well,156,101
Nup214,1,,fewer than 50 cells per well; well left out of calls,47.3,94
Coa8,1,2.47,enough cells in well,410,144
Slc39a4,1,0.12,enough cells in well,210,160
Adtrp,1,,fewer than 50 cells per well; well left out of calls,130,118
Zfp410,1,0.24,enough cells in well,178,213
Prune2,1,0.39,enough cells in well,209,156
C130023O10Rik,1,-0.23,enough cells in well,99.2,157
Tspan32,1,-0.89,enough cells in well,166,140
Pdhb,1,0.59,enough cells in well,335,182
Vmn1r82,1,-1.32 (active),enough cells in well,68,35.9
Slc45a3,1,,fewer than 50 cells per well; well left out of calls,111,16.9
Pfkl,1,3.73 (active),enough cells in well,382,420
Gbp2b,1,0,enough cells in well,250,242
Nos1,1,-0.31,enough cells in well,209,169
Gosr2,1,-0.39,enough cells in well,172,195
Kcna6,1,0.19,enough cells in well,246,166
Herpud2,1,,fewer than 50 cells per well; well left out of calls,136,103
Tmem239,1,0.46,enough cells in well,189,184

Hits, among the entries above:
target,reagent no.,Tnf reporter robust z-score,fewer than 50 cells in well,"Tnf reporter intensity, replicate 1","Tnf reporter intensity, replicate 2"
Xirp1,1,-1.8 (active),enough cells in well,76.5,53.7
Or6c69c,1,3.29 (active),enough cells in well,259,182
Fam167a,1,-1.52 (active),enough cells in well,76.8,82.3
Casp12,1,-1.75 (active),enough cells in well,40.1,109
Vmn1r82,1,-1.32 (active),enough cells in well,68,35.9
Pfkl,1,3.73 (active),enough cells in well,382,420
